PMC4829432, “T-box3 is a ciliary protein and regulates stability of the Gli3 transcription factor to control digit number” (eLife, 2016)
Read-outs that look alike come from different tables or passages of the source. These are yes or no findings as the source states them, for the method shown. Binding seen in cells or lysates may run through a third protein. Some results given as binding are weak or reduced against the parent protein; the word gives no strength. Where a sequence is shown, tags or fusion partners need not be part of it.

The chains behind the UniProt entries cited, without tags or fusion partners.
UniProt Q61602: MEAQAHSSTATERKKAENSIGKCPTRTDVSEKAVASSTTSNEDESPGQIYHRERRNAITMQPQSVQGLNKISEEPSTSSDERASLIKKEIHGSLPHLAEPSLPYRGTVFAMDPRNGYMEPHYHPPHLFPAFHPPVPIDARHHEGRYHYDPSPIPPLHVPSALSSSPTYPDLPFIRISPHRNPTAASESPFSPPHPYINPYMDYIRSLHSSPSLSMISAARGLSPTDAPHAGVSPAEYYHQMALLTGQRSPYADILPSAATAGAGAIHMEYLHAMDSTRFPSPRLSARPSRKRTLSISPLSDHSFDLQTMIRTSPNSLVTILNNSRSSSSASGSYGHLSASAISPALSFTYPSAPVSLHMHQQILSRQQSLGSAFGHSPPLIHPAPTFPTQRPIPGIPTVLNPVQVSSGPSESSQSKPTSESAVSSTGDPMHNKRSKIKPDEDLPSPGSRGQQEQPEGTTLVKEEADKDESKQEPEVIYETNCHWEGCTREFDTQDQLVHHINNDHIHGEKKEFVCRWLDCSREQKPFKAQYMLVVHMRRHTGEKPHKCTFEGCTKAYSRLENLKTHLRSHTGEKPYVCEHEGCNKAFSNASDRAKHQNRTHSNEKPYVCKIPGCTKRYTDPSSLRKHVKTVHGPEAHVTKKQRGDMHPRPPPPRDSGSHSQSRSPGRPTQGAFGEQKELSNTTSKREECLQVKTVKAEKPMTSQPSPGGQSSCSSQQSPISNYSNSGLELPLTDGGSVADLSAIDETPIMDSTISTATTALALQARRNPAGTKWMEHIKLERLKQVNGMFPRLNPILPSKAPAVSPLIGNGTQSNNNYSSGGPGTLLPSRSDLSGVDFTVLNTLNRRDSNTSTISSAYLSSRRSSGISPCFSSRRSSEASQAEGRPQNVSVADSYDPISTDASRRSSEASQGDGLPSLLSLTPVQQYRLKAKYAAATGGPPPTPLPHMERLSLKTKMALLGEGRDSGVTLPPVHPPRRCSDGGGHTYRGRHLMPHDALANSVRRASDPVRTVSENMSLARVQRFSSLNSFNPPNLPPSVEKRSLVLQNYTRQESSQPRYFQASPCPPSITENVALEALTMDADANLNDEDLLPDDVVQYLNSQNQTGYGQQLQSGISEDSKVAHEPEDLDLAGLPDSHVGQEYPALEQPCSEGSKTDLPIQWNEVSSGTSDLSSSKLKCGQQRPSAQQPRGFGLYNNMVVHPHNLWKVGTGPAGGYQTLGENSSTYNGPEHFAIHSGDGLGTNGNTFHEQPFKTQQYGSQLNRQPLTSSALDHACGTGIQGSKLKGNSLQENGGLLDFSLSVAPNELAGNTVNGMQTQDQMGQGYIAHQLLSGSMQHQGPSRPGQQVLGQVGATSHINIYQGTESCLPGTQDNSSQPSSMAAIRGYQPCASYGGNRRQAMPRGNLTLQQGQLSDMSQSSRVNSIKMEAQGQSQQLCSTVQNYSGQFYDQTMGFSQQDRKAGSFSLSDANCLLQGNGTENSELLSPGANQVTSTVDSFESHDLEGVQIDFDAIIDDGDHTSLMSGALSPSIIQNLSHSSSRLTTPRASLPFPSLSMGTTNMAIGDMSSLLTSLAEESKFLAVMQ

Legend:
[1] = molecular target: T1, Myc-tagged full length TBX3 (UniProt P70324); assay: co-IP; Myc- and Flag-tagged proteins overexpressed together in HEK293 cells; lysates in Dignam buffer C; IP for Flag or Myc, immunoblot for Tbx3, Kif7 or Gli3
T1 sequence: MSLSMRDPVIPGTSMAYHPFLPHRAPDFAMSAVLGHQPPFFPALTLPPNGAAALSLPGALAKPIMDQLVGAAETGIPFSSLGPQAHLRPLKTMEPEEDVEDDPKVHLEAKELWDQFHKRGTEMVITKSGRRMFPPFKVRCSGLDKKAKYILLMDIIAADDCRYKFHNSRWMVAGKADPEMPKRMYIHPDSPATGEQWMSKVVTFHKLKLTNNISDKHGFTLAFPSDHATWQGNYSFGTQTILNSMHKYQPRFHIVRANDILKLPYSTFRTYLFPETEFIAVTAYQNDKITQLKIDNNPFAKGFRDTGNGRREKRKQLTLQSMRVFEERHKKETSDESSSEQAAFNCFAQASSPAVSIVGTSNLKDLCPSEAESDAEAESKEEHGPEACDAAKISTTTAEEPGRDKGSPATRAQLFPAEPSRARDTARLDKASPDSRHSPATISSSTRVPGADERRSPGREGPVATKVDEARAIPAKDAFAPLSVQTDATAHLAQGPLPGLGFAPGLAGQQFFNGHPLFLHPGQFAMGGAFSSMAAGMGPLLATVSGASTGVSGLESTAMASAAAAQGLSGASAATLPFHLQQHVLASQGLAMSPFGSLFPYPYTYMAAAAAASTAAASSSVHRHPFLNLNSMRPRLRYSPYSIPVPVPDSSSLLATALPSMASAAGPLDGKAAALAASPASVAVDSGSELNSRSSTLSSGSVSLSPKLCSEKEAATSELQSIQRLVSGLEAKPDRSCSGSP

[2] = molecular target: T1, Myc-tagged full length TBX3; assay: as above; remark: listed apart in the source

## Flag-tagged Gli3 (from UniProt Q61602 1-1583)
[1]
  binding: no binding

B1: Flag-tagged Kif7 (protein, UniProt B7ZNG0 1-1348)
chain: MGLEAQRLPGAEEAPVRVALRVRPLLPKELLHGHQSCLRVEPERGRITLGRDRHFGFHVVLGEDTGQEAVYQACVQPLLEAFFEGFNATVFAYGQTGSGKTYTMGEASVASLHEDEQGIIPRAMAEAFKLIDENDLLDCLVHVSYLELYKEEFRDLLEVGTASRDIQLREDDRGNVVLCGVKEVDVEGLDEVLSLLEMGNAARHTGATHFNRLSSRSHTVFTVTLEQRGRTPSRLPRPAAGHLLVSKFHFVDLAGSERVLKTGSTGERLKESIQINSTLLALGNVISALGDPQRRGSHIPYRDSKITRILKDSLGGNAKTVMIACVSPSSSDFDETLNTLNYASRAQNIRNRATVNWHPEAERVPEEQAAGARGPPRHRSETRIIHRGRRVPCPAVGSAAVAAGLGAECARCRARTSAAYSLLRELQAEPGLPGAAARKVRDWLCAVEGERSTLSSASGPDSGIESAPAEDQAAQGTSGRKGDEGTQQLLTLQSQVARLEEENRDFLAALEDAMEQYKLQSDRLREQQEEMVELRLRLELAQPGWGAPGLLQGLPPGSFVPRPHTAPLGGAHTHMLGMMPSTCLPGEEVSSEQQVVSGKEVKAEVLAQADKLRSASSTTSEEEGEEEEEEEEEEEEPPRRTLYLRRNGISNWSQRAGLSPGSPPDRKGPEVCPEEPAAAIPAPQAVGSGKVPVQTRQAPAAMASEWRLAQAQQKIRELAINIRMKEELIGELVRTGKAAQALNRQHSQRIRELEQEAERVRAELCEGQRQLRELEGREPQDASERSRLQEFRKRVAAAQSQVQVLKEKKQATERLVSLSAQSETRLQELERNVQLMRRQQGQLQRRLREETEQKRRLETEMNKRQHRVKELELKHEQQQKILKIKTEEIAAFQRKRRSGSNGSVVSLEQQQKIEEQKKWLDQEMEKVLQQRRALEELGEELRKREVILAKKEALMQEKTGLESKRLRSSQALNEDIVRVSSRLEHLEKELSEKSGQLRQGSAQNQQQIRGEIDTLRQEKDSLLKQRLEIDSKLRQGSLLSPEEERTLFQLDEAIEALDAAIEYKNEAITCRQRVLRASASLLSQCEMNLMAKLSYLSSSETRALLCKYFDKVVTLREEQHQQQIAFSELEMQLEEQQRLVYWLEVALERQRLEMDRQLTLQQKEHEQNVQLLLQQGRDHLGEGLADSKRQYEARIHALEKELGRHMWINQELKQKLSAGSTAGQSQGCERRSLCLENRQCLGNEDGLHPAAPEPLWQSSLLEGVSRVWDESRDLVHAPLPLTWKRSSLCSEQGSSEESRVRETTEPPVGRVLPMGEVGLSWNFGPLPKPRWEPRRTSPGMIDVRKNPL
[2]
  binding: binds
